# Source: PMC9658052, “Virtual Screening and Biological Activity Evaluation of New Potent Inhibitors Targeting Hexokinase-II” (Molecules, 2022)
# Experiments:
# Assay type in all cases: cell-based
# A549 cells = assay: MTT cytotoxicity assay, A549; conditions: Homo sapiens, 48 h, read-out: IC50 (toxicity) A549
# Method: (§1) Initially, we adopted the MTT assay to screen the cytotoxicity of all compounds toward three different types of cancer cell lines (HeLa, HepG 2 and A549). […] The chemical structures of the selected compounds are depicted in Figure 2.
# (§2) HeLa, Hep G2, and A549 cells were purchased from the Shanghai Institute of Biochemistry and Cell Biology, Chinese Academy of Sciences. All cells were cultured in DMEM with 100 units/mL penicillin/streptomycin, 2 mM glutamine, and 10% FBS in a carbon dioxide atmosphere at 37 °C.
# (§3) Cytotoxicity was quantified using a standard MTT assay, which is widely used in evaluating cell proliferation and screening for anticancer drugs. Briefly, following 7 × 10^3 cells incubating in 96-well plates for 48 h filled with DMEM medium supplemented with 10% fetal bovine serum (FBS) containing different concentrations of samples, 10 μL/well of MTT (5 mg/mL) was added. After 4 h of incubation at 37 °C, 100 μL of extraction buffer containing 5% iso-butanol, 0.1% HCl, and 10% SDS was added, and then the cells were incubated overnight. As controls, cells were treated with 0.1% (v/v) DMSO alone. The cell viability was calculated by the absorbance (570 nm) of each well obtained using a microplate reader (Thermo Scientific Multiskan GO, Vantaa, Finland).
# HeLa cells = assay: MTT cytotoxicity assay, HeLa; conditions: Homo sapiens, 48 h, read-out: IC50 (toxicity) Hela
# Method: as §1, §2, §3
# HepG 2 cells = assay: MTT cytotoxicity assay, HepG 2; conditions: Homo sapiens, HepG2, 48 h, read-out: IC50 (toxicity) HepG 2
# Method: as §1, §2, §3
smiles,measurement,setting,value
CCN1CCC[C@H]1CNC(=O)c1ccc2c(c1)NC(=O)/C(=C\c1ccc(OC)c(OC)c1)S2 [K788-8853],IC50,A549 cells,10.7 ± 0.5 µM
same,IC50,HeLa cells,15.1 µM
same,IC50,HepG 2 cells,12 ± 0.5 µM
